# Laboratory results as given in the supplement of paper PMC5949888.
# ± gives the standard deviation of the averaged measurements. Most values lie at the floor of the assay. Slopes are relative: functional sequences can read slightly below zero.
# System: Saccharomyces cerevisiae PS128 hsf1 delta, HSF1(1-493) fusion
# Test: growth estimate (transactivation domain function in HSF1 fusion, heat-shock survival) (a.u. (slope of normalised read count over time)); higher = stronger growth at 37°C, i.e. more transactivation activity
# Conditions: library: random library
row,Substance,growth estimate
1,LTSRETAGIGTVKFGFTEAR,< -0.25
2,LLSDSVFIAAYAWSTRLSGP,< -0.25
3,LSSS,-0.244 ± 0.011
4,IITEGRSVRGINCGRSIGPA,< -0.25
5,YRSCLQQILPSSYLSARTTV,< -0.25
6,GPKCEIKCSYCIK,< -0.25
7,GPRQPSEVALERHPPLCAAA,< -0.25
8,RDPRNLRHSIRPTGGTGTSS,< -0.25
9,DNGHYGANARVLGSSQETPG,< -0.25
10,TKWLNCSSGLANMSIMAEGR,< -0.25
11,EGQVWYWRAYHGNMTTN,< -0.25
12,LTVNVGLVSDGRIFRREARP,< -0.25
13,LDRTIVGTGQVALRRRDSPT,< -0.25
14,GRMHGCFPIRKLCSLLGQSS,< -0.25
15,ILHGLTGIDQAGLARVARCC,< -0.25
16,KLHRRLLIYVVMDVPPFCA,< -0.25
17,MFSISMGDREISQSGDCLTR,< -0.25
18,GVEMISHVNGRQLARSYPHR,< -0.25
19,PYLGFKVKYMLWFGTYTTPL,< -0.25
20,AVVGGRPETGYSLPALSPWI,< -0.25
21,ITSNALHNR,< -0.25
22,QFLGGTEDNHRRYAKL,< -0.25
23,SEKREKTNW,< -0.25
24,SSVA,-0.25
25,RAQPVQCLDWFQTNVTGTKY,< -0.25

row,Substance,growth estimate
1,QVTKPVMQVVWPRTGQMLFT,< -0.25
2,EDGSAGPDCTLVQKRHS,< -0.25
3,DEGLVCDGVLERRIRYYSPV,< -0.25
4,LQRSPSMYHGNCSLNL,< -0.25
5,RGCRA,< -0.25
6,ISLIDSKCMPAATKVLSLLD,< -0.25
7,AGF,< -0.25
8,GVESRLLTDPTGNPLN,< -0.25
9,NESTGT,< -0.25
10,NQRRSKQRVWEGVGMVTVQA,< -0.25
11,KTDCSPTARCNKPRGHAPTR,< -0.25
12,VSSSRGV,< -0.25
13,GCSADGAI,< -0.25
14,TCVSKRMMVSVRLGWTTGF,< -0.25
15,AAC,< -0.25
16,GSSSARKGG,< -0.25
17,LGVKRR,< -0.25
18,MLRDRRCPV,< -0.25
19,AQELIRSYRTS,< -0.25
20,ALRVTKAWPFGKDWPYITIV,< -0.25
21,LSMGTMHGC,< -0.25
22,LESGDRVGRRNL,< -0.25
23,DLSWGVLKGYTTSPRYSRRR,< -0.25
24,SRMGLFRL,< -0.25
25,TVTSP,< -0.25

row,Substance,growth estimate
1,PSE,< -0.25
2,FSEATRIVRPFSGAGS,< -0.25
3,HLFARS,< -0.25
4,GTECQEDCLQILGLSSSWIL,< -0.25
5,FWQQDT,< -0.25
6,SFEWGTGRNHLLETRCVSRR,< -0.25
7,HSVNEPAQIITFQL,< -0.25
8,MKDIKAATIAGCRSGAPKSG,< -0.25
9,KVISLGNILKLP,< -0.25
10,LYELGLKGAVLPFCRRPTLR,< -0.25
11,RAIQ,< -0.25
12,EDPPI,< -0.25
13,SNDSGSRCFGSSFLHTTSRG,< -0.25
14,LGSEVRSITTSMPDARYTLG,< -0.25
15,MVLSGSLARVVSRSVGLSAL,-0.219
16,VLGGSSVHLVEHDSTIDERR,< -0.25
17,LLSYCWPCVGRGWPWTRSYV,< -0.25
18,TGSKQRQTTGTEVCRYNRRQ,< -0.25
19,ADEYRSRR,< -0.25
20,SVGADEPFGDAKGVSRQ,< -0.25
21,LSSKKCRQSRYRTQSPGPSE,< -0.25
22,RELWELDCAVNPGPLPLKRR,< -0.25
23,FSLIAFQIERLNVRRNAAA,< -0.25
24,REPGLDRHRGKDETSSVARF,< -0.25
25,NLDKAAHSV,< -0.25

row,Substance,growth estimate
1,WVT,< -0.25
2,DSYAGSFIVSRRSTRLEGLR,< -0.25
3,RLAIYRRSVHSIKPPGLACT,< -0.25
4,LGGRPVHLVPKKGKRSVAVV,< -0.25
5,GVTARGVRTPCNMPLLY,< -0.25
6,RAIRASM,< -0.25
7,RKVSEVWPIAELLW,< -0.25
8,RTSDLRSLSPRGQFARYSAS,< -0.25
9,SQVYRLPLS,< -0.25
10,FAQGVHR,< -0.25
11,GGRSLPASFAGGSHSPLGRR,< -0.25
12,AKGRKRRTQ,< -0.25
13,KSYRFPARVSSIQILVGTDA,< -0.25
14,EFGIFNRQSPNPG,< -0.25
15,RNGNKVTGRPSP,< -0.25
16,VLPFTYAVHPQY,-0.245
17,TVGWRGTGVMALAHYKHAVA,< -0.25
18,SGGQDPEILLRDGICRHQAQ,< -0.25
19,ADIQENATLGRPLRDGSPPP,0.146
20,GPGGRK,< -0.25
21,TFDIIGSCQCCTVGLMTFKT,< -0.25
22,RMCTRSIIMEFAL,< -0.25
23,LIAVWLL,< -0.25
24,LAEILVECIAGGWTCRFAYK,< -0.25
25,GWNSPPPKMKRRLLGHRVAR,< -0.25

row,Substance,growth estimate
1,CNESDVGISPIKRRDDDTQF,< -0.25
2,VAGYVYRKV,< -0.25
3,SPPIRGESSVAL,< -0.25
4,FTGRA,< -0.25
5,GYYCASAEGRRKYLKSN,< -0.25
6,LHRTNLWYDPYSPVQGYYLH,< -0.25
7,RRPHPLATNSWIAYSGVPAP,< -0.25
8,SILVAIC,< -0.25
9,VASTW,< -0.25
10,VCMRIPMKKLVDFNKRHALV,-0.243
11,SMFETRIQLAFDCRAV,< -0.25
12,YAYLGADGLNSKTPV,< -0.25
13,RGGAVCAWKERTKRLYTCST,< -0.25
14,RATSVQSFYQSSRL,< -0.25
15,SISKLCSDRT,< -0.25
16,LGEQDKVPASWI,< -0.25
17,LCSMQACSAR,< -0.25
18,SWATPRHCAQISSSKLPCPF,< -0.25
19,PVINSALDKFFARGPRGYRW,< -0.25
20,GERLGLAAARRADIMAKNPA,< -0.25
21,RRVTSLYRFNSSNFRPGRGI,< -0.25
22,RVTGIFLTT,< -0.25
23,WTCKTSASAGKPFWDVSVRL,< -0.25
24,MTLLLAATPRSEETAPMQSL,< -0.25
25,FSKVRTGRGRVGPPDSTSFR,< -0.25

row,Substance,growth estimate
1,RPTLRAPLFAGDE,< -0.25
2,YKIARWPGIATGMLGFPVRL,< -0.25
3,NRDGPFTVARTLPSVRTPCF,< -0.25
4,EFCGDRRAYKLREKLEPPFC,-0.227
5,ASTQLRIS,< -0.25
6,AEIGTEPLST,< -0.25
7,THGHGV,< -0.25
8,RCQENWAAPLPLR,-0.245
9,GCLMHYRVKSVPGITLRFSS,< -0.25
10,RTQSLTRGGVVMRV,< -0.25
11,TPSLATSCNTPWTVLSPVHF,3.19
12,KRDKQYDAGRCQFCCCVQLV,< -0.25
13,PYAPYVHPHLDEVTK,< -0.25
14,GGA,< -0.25
15,IRYPSDPVFLCLNVSKGTTD,< -0.25
16,LVTGYLSEGTGSR,< -0.25
17,QYMWELIRKPEADASGPGA,-0.218
18,SRWLVF,< -0.25
19,IVPTKCS,< -0.25
20,VSLCQGGNGLEEHLC,< -0.25
21,GVTYFQRNLTTSNALCCGLT,< -0.25
22,LTHRGAPSIQL,< -0.25
23,SYAKWRLVCQSRRSTPERLR,< -0.25
24,GSCPIRGLCHAYVSLMY,< -0.25
25,IADSLQRCRRSETLFYYGTA,< -0.25

row,Substance,growth estimate
1,PAVGVTVVGASCLFIRVSRN,< -0.25
2,GRERYWRSYKNVTDVGRFIV,< -0.25
3,MLGSRFGPVGVHV,< -0.25
4,QPVCLRSIMVHEPVGFESTN,< -0.25
5,RSLEVVNLKPSNGLSPTSPR,< -0.25
6,HLKCVGRGPVMGSHGNRAND,< -0.25
7,LGVV,< -0.25
8,ESSSPT,< -0.25
9,IWSRGILMVLTRRCPVLPRA,< -0.25
10,MVRMAHATSD,< -0.25
11,VSVYHQEMQFYWH,< -0.25
12,SGDSQQGIGVRITKLGV,< -0.25
13,LGRVRTRAMP,< -0.25
14,YKCAKSYLEALEIRLGRPVP,< -0.25
15,QRRDSAMHAFGI,-0.168
16,HVWTCNYWHFSNALHTKHFP,< -0.25
17,QVTCLGW,< -0.25
18,FSRRRAYGVWPMKGCCHASA,< -0.25
19,RCDPLRGDAPVEIESEKNSP,< -0.25
20,QSLQCRLERILVFLNHKVSC,< -0.25
21,EITAQMPGLTHNVELDSSGS,< -0.25
22,ILEHDTGR,< -0.25
23,GDYFGA,< -0.25
24,QSQALPKTVGP,< -0.25
25,YGEGRVSARAD,< -0.25

row,Substance,growth estimate
1,DETQTDARRTCPW,< -0.25
2,EYLSMCRHYNGSGKSIVRLV,< -0.25
3,LSISESRVCRGHSVSTTPSL,< -0.25
4,RVPYAGEANPQPRKPGRVHV,< -0.25
5,LSHFKKAELRDEVLHIRE,< -0.25
6,TPISRKINSSMVFS,< -0.25
7,DQVLVFWGGTSTVPLSGGSL,< -0.25
8,PIMVSAGSLTATSERDRIT,< -0.25
9,VMVPDTLYCILPVPTACRVR,< -0.25
10,VSGRPWRIAQRV,< -0.25
11,PVVKAGTGTRHPPPFLHHAF,< -0.25
12,AAIHEVAAVVS,< -0.25
13,SEYCSSMGPDPGKLHSPRRI,< -0.25
14,HRQSLKERFR,< -0.25
15,DGSVPKSQ,< -0.25
16,VWVLHRIRAYCKTYNLG,< -0.25
17,VRGSRGLACRVTARY,< -0.25
18,RRSINWVQGEA,< -0.25
19,VHRRPAV,< -0.25
20,VSAAWWVNRVLAGGMLEVTN,< -0.25
21,IRAWPWD,< -0.25
22,VSDI,< -0.25
